Measured values published in PubChem BioAssay AID588497 (NMMLSC, 2011).
Hit rate of the full screen: of about 360,000 compounds, about 780 (0.22%) were called active. The inconclusive results got no clear call from the source; some entries with a clear call stand among them for comparison. No stated cut-off is given here; in the data, active means inhibition above about 35% (passing the limit was not always enough); inconclusive means no clear call, values can overlap the other calls.

Tested on: Botulinum neurotoxin type F light chain protease (Clostridium botulinum)
Assay: BoNT/F light chain protease inhibitors, primary screen, biochemical, flow cytometry, MLPCN library (AID 588497); further: plate controls were buffer without enzyme for full effect and enzyme alone for no effect
Conditions: Multiplex microsphere protease cleavage assay, at 10 µM, hits give high values

| SMILES | inhibition |
| --- | --- |
| CCOc1ccc(NC(=O)CSc2nnc(C3CC3)n2C)cc1S(=O)(=O)N1CCCCC1 | inactive: -7.7% |
| Cc1ccc(S(=O)(=O)NCc2c(Cl)cccc2Oc2ccccc2)cc1 | inconclusive: -105% |
| Cc1cccc(Nc2nc(C)cc(C)n2)c1 | inactive: -25.4% |
| O=C(c1ccc(F)cc1)n1c(=S)nc2ccccn21 | inconclusive: 11.7% |
| CCOC(=O)N1CCN(C(=O)C(NC(=O)c2ccco2)C(C)C)CC1 (stereo not drawn) | inconclusive: -18.9% |
| Cc1c(C(=O)N2CCC[C@H]2CO)oc2c(F)cccc12 | inconclusive: 25% |
| CC(C)(C)c1ccc(OCCC(=O)NNC(=O)c2ccncc2)cc1 | inconclusive: 4.5% |
| COc1cc2c(-c3ccccc3)c(C)oc2cc1/C=N/NC(N)=S | inconclusive: 32.7% |
| CCC(C)[C@H](NC(=O)Nc1ccc2c(c1)OCCO2)C(=O)O (stereo partly drawn) | inactive: -0.7% |
| CC(NC(=O)CCSCc1ccccc1F)c1ccccc1 (stereo not drawn) | inactive: 16.2% |
| Cc1cc(Oc2ccc([N+](=O)[O-])cc2)nc(N2CCOCC2)n1 | inconclusive: -21.6% |
| CCOc1ccc2nc(NC(=O)C3(C)CC3(Br)Br)sc2c1 (stereo not drawn) | inconclusive: -35.8% |
| COCCN(Cc1cn[nH]c1-c1ccc2cc(OC)ccc2c1)C(C)C | inconclusive: -40.9% |
| CC(=O)c1ccc(N2CCN(S(=O)(=O)c3cn(C)c(C)n3)CC2)cc1 | inactive: -10.5% |
| CCc1ccc(S(=O)(=O)N2CCN(c3ncccn3)CC2)cc1 | inconclusive: 10.5% |
| Nc1nc(NCCCN2CCOCC2)nc(Nc2cccc(F)c2)c1[N+](=O)[O-] | inconclusive: -88.8% |
| CC(=O)Nc1ccc(C(=O)Nc2ccc(S(=O)(=O)Nc3nccc(C)n3)cc2)cc1 | inconclusive: 33.7% |
| CC1COC(Cn2c3ccccc3c3ccccc32)O1 (stereo not drawn) | inconclusive: 124% |
| COc1ccc(N(CC(=O)Nc2ccccc2Cl)S(=O)(=O)c2ccc(C)cc2)cc1OC | inconclusive: -2.5% |
| Clc1ccc(CNc2ccc(N3CCN(Cc4ccccc4)CC3)cc2)cc1 | inconclusive: -65.8% |

| SMILES | inhibition |
| --- | --- |
| COc1ccccc1/C=C/c1nc(C#N)c(N(C)C)o1 | inconclusive: -6.8% |
| Nc1c(C(=O)Nc2ccc(Cl)cc2)sc2nc(N3CCOCC3)c3c(c12)CCCC3 | inactive: -1.1% |
| C=CCn1c(O)c(N=NC(=O)CNC(=O)/C=C/c2ccco2)c2ccccc21 | inactive: 3.7% |
| CC1=C(C(=O)OC(C)C)C(c2ccc3c(c2)OCO3)NC(=O)N1 (stereo not drawn) | inconclusive: -10.8% |
| Brc1c(-c2ccccc2)nc2n1Cc1ccccc1-2 | inconclusive: 65.1% |
| CCOC(=O)c1sc2cc([N+](=O)[O-])cc(SCC(=O)OC)c2c1N | inactive: 23.2% |
| O=C(NC1CCCC1)c1cc2nc(-c3ccccc3)cc(-c3ccccc3)n2n1 | inactive: -3% |
| O=S(=O)(Nc1cccc2ncccc12)c1cccs1 | inconclusive: 1.5% |
| C=CCN1CCN(C(=O)CSc2ccccc2)CC1 | inconclusive: -9.6% |
| C/C(CC(=O)Nc1cccnc1)=N/NC(=O)COc1ccc(Cl)cc1Br | inconclusive: 8.4% |
| O=C(NCCN1CCN(c2ccc([N+](=O)[O-])cc2)CC1)NCc1ccccc1 | inconclusive: 6.9% |
| C=CCn1c(O)c(C(C)=NCc2ccco2)c(=O)[nH]c1=O | inactive: 0.1% |
| O=C(c1cc(F)cc2c1OCOC2)N1CCN(c2ccc(F)cc2)CC1 | inconclusive: -30.4% |
| O=C(NCc1csc(-c2cccs2)n1)Nc1cccc(Cl)c1 | inconclusive: 10.6% |
| CC1(C)OC(=O)C(=Cc2ccc[nH]2)C(=O)O1 | inconclusive: -74.2% |
| O=S(=O)(c1ccc(NC(=S)NCc2ccco2)cc1)N1CCCCC1 | inconclusive: -65.7% |
| CS(=O)(=O)N(CC(=O)NCC1CCCO1)c1cccc([N+](=O)[O-])c1 (stereo not drawn) | inactive: -6.9% |
| CCN(CC(=O)Nc1ccccc1C(F)(F)F)C(=O)c1cccc(N2C(=O)CCC2=O)c1 | inconclusive: -5.9% |
| Cc1cccc2cc3ccccc3nc12 | inconclusive: -38.6% |
| Cc1ccc(C)c(OCC(=O)O/N=C(\N)c2ccccn2)c1 | inconclusive: -32.4% |

| SMILES | inhibition |
| --- | --- |
| Cn1c(CSCc2ccc(Cl)c(Cl)c2)nnc1SCC(=O)Nc1nccs1 | inconclusive: 38.1% |
| C=CCc1c(C)nc(SC(C)C)[nH]c1=O | inconclusive: 0.1% |
| N#Cc1nc(-c2ccccc2F)oc1NCCc1ccccc1 | active: 41.9% |
| COC(=O)c1cc(NC2c3ncccc3C(=O)N2Cc2ccccc2)cc(C(=O)OC)c1 (stereo not drawn) | inactive: -1.7% |
| Cc1ccc(-c2nc(-c3nccc4ccccc34)oc2-c2ccccc2)cc1 | inconclusive: -31.7% |
| CCOCCCNC(=O)c1c[nH]c2ccc(C)cc2c1=O | inactive: -0.7% |
| COc1ccccc1C(=O)Nc1ccc(Oc2ncnc3sc(-c4ccccc4)cc23)cc1 | inconclusive: -0.7% |
| COc1ccc(CC(=O)Oc2ccccc2[N+](=O)[O-])cc1 | inconclusive: 44.6% |
| NNC(=O)c1csc(Cc2c(Cl)sc3ccc(Cl)cc23)n1 | inconclusive: -28.7% |
| O=S(=O)(CCc1ccncc1)C1Cc2cccc3cccc1c23 (stereo not drawn) | inconclusive: -28.8% |
| CCOc1ccc(OCCC(=O)OCC(=O)NNC(=O)c2ccccc2)cc1 | inconclusive: -0.6% |
| CCOc1ccc(NC(=O)c2nn(C)c(C(=O)Nc3ccc(OCC)cc3)c2[N+](=O)[O-])cc1 | inconclusive: -10.7% |
| COc1ccc(NC(=O)C(F)(OC)C(F)(F)F)c(OC)c1 (stereo not drawn) | inactive: 0.6% |
| CN(CC(=O)Nc1cccc(F)c1)C(=O)C1CSC2(C)CCC(=O)N12 (stereo not drawn) | inconclusive: 7.9% |
| COc1ccc(CN2C(=O)c3cccnc3C2=O)cc1S(=O)(=O)NC1CCCCC1C (stereo not drawn) | inactive: -9.4% |
| CC(=O)OCC1OC(Sc2cccc3cccnc23)C(OC(C)=O)C(OC(C)=O)C1OC(C)=O (stereo not drawn) | inconclusive: -8.4% |
| Cc1cc2c(=O)oc(-c3ccc(Br)cc3)nc2s1 | inconclusive: 17.7% |
| CCCCOC(=O)C1=C(C)Nc2ncnn2C1c1cc(OC)ccc1OC (stereo not drawn) | inactive: 9.5% |

Fetched by compound from above, two records:

| SMILES | inhibition |
| --- | --- |
| Nc1nc(NCCCN2CCOCC2)nc(Nc2cccc(F)c2)c1[N+](=O)[O-] | inconclusive: -88.8% |
| CCC(C)[C@H](NC(=O)Nc1ccc2c(c1)OCCO2)C(=O)O (stereo partly drawn) | inactive: -0.7% |
